Test results: PMC7228994
Results are given in words; binding and its absence hold for the method and conditions named. In cells and extracts the contact can be indirect. A yes stands for co-enrichment or nearness to the bait. Other partners may have been found. Tags and fused reporters may be left off the sequences shown.

Amino acid sequences for entries named in this document (tags omitted).
UniProt Q8IY92: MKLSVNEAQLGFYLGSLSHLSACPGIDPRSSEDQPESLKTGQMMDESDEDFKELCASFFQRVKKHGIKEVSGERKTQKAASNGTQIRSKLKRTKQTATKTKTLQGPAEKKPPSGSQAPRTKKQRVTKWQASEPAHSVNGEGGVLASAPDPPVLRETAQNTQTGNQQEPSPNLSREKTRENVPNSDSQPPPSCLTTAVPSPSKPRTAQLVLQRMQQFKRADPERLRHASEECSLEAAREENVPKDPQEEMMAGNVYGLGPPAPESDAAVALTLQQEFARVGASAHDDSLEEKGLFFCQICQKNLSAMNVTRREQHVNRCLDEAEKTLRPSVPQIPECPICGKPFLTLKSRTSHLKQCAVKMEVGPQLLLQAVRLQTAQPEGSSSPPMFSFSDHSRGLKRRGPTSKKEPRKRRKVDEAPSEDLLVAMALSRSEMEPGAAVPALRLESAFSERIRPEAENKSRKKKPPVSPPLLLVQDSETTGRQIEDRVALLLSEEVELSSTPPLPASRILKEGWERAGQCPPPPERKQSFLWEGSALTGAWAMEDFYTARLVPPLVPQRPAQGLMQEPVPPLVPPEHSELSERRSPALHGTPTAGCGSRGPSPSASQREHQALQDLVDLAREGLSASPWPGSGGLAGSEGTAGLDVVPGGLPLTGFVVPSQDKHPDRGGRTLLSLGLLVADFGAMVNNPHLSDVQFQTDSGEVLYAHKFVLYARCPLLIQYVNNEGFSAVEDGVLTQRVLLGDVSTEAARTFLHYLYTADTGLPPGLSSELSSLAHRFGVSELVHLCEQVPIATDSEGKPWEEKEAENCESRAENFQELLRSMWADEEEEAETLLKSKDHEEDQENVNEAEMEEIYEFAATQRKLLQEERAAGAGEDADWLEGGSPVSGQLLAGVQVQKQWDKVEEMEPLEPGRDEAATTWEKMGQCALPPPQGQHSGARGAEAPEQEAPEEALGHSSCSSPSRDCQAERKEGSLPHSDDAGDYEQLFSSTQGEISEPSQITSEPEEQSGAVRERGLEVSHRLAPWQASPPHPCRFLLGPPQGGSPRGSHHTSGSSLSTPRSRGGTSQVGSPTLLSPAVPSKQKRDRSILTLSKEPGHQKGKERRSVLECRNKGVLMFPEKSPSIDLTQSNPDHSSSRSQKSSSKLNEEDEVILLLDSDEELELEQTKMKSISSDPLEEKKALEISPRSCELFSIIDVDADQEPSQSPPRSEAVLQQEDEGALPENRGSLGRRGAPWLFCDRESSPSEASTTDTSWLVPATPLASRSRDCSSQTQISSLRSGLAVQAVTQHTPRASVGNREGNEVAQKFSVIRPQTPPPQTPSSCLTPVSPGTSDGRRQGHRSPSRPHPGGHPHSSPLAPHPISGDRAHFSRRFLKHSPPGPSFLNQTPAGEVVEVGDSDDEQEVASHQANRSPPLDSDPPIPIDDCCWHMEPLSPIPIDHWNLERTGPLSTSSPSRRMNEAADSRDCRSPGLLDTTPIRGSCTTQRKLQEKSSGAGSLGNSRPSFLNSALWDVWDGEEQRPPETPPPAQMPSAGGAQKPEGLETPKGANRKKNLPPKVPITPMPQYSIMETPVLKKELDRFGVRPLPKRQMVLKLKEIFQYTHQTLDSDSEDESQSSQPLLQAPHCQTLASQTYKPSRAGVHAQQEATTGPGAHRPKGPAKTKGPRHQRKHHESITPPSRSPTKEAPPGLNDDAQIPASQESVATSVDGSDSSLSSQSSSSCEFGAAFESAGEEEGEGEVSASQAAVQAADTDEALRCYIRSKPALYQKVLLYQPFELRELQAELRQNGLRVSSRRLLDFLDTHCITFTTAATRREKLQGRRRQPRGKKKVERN
UniProt P19447: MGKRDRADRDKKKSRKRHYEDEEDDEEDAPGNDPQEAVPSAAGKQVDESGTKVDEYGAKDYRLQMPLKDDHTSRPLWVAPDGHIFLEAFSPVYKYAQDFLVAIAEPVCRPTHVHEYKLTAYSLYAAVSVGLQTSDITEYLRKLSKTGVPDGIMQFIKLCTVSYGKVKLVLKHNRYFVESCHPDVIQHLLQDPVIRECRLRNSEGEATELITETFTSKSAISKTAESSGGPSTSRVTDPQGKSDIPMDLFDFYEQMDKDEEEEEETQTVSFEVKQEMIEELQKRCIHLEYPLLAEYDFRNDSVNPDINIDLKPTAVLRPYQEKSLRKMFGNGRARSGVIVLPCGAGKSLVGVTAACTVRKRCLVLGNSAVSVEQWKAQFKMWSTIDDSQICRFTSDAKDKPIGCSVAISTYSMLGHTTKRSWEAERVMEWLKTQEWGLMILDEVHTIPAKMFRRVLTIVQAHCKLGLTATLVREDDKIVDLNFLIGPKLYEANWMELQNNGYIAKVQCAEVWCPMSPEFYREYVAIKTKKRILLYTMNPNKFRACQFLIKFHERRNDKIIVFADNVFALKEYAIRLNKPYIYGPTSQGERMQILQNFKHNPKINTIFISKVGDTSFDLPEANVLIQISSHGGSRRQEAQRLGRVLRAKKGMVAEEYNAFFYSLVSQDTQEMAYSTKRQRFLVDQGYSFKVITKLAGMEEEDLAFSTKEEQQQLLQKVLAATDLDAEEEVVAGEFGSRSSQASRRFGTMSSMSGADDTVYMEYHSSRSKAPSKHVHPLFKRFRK
UniProt P32780: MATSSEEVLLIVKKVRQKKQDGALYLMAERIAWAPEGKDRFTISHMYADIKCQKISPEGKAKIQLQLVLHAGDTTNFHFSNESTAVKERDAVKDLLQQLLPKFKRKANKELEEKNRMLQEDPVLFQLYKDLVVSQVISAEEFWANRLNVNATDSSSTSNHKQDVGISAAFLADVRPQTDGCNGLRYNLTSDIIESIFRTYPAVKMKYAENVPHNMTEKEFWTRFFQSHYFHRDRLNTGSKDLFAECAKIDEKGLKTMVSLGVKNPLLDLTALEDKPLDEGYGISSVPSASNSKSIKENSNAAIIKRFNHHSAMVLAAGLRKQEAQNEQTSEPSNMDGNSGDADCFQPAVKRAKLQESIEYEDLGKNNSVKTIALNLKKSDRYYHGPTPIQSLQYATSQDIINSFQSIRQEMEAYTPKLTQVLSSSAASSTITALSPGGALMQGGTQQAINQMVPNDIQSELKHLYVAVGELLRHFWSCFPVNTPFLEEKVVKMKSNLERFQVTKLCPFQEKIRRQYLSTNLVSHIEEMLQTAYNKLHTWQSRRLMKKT

B1: p52/GTF2H4 (protein, UniProt Q92759 1-462)
chain: MESTPSRGLNRVHLQCRNLQEFLGGLSPGVLDRLYGHPATCLAVFRELPSLAKNWVMRMLFLEQPLPQAAVALWVKKEFSKAQEESTGLLSGLRIWHTQLLPGGLQGLILNPIFRQNLRIALLGGGKAWSDDTSQLGPDKHARDVPSLDKYAEERWEVVLHFMVGSPSAAVSQDLAQLLSQAGLMKSTEPGEPPCITSAGFQFLLLDTPAQLWYFMLQYLQTAQSRGMDLVEILSFLFQLSFSTLGKDYSVEGMSDSLLNFLQHLREFGLVFQRKRKSRRYYPTRLAINLSSGVSGAGGTVHQPGFIVVETNYRLYAYTESELQIALIALFSEMLYRFPNMVVAQVTRESVQQAIASGITAQQIIHFLRTRAHPVMLKQTPVLPPTITDQIRLWELERDRLRFTEGVLYNQFLSQVDFELLLAHARELGVLVFENSAKRLMVVTPAGHSDVKRFWKRQKHSS
B2: XPG/ERCC5 (protein, UniProt P28715 1-1186)
chain: MGVQGLWKLLECSGRQVSPEALEGKILAVDISIWLNQALKGVRDRHGNSIENPHLLTLFHRLCKLLFFRIRPIFVFDGDAPLLKKQTLVKRRQRKDLASSDSRKTTEKLLKTFLKRQAIKTAFRSKRDEALPSLTQVRRENDLYVLPPLQEEEKHSSEEEDEKEWQERMNQKQALQEEFFHNPQAIDIESEDFSSLPPEVKHEILTDMKEFTKRRRTLFEAMPEESDDFSQYQLKGLLKKNYLNQHIEHVQKEMNQQHSGHIRRQYEDEGGFLKEVESRRVVSEDTSHYILIKGIQAKTVAEVDSESLPSSSKMHGMSFDVKSSPCEKLKTEKEPDATPPSPRTLLAMQAALLGSSSEEELESENRRQARGRNAPAAVDEGSISPRTLSAIKRALDDDEDVKVCAGDDVQTGGPGAEEMRINSSTENSDEGLKVRDGKGIPFTATLASSSVNSAEEHVASTNEGREPTDSVPKEQMSLVHVGTEAFPISDESMIKDRKDRLPLESAVVRHSDAPGLPNGRELTPASPTCTNSVSKNETHAEVLEQQNELCPYESKFDSSLLSSDDETKCKPNSASEVIGPVSLQETSSIVSVPSEAVDNVENVVSFNAKEHENFLETIQEQQTTESAGQDLISIPKAVEPMEIDSEESESDGSFIEVQSVISDEELQAEFPETSKPPSEQGEEELVGTREGEAPAESESLLRDNSERDDVDGEPQEAEKDAEDSLHEWQDINLEELETLESNLLAQQNSLKAQKQQQERIAATVTGQMFLESQELLRLFGIPYIQAPMEAEAQCAILDLTDQTSGTITDDSDIWLFGARHVYRNFFNKNKFVEYYQYVDFHNQLGLDRNKLINLAYLLGSDYTEGIPTVGCVTAMEILNEFPGHGLEPLLKFSEWWHEAQKNPKIRPNPHDTKVKKKLRTLQLTPGFPNPAVAEAYLKPVVDDSKGSFLWGKPDLDKIREFCQRYFGWNRTKTDESLFPVLKQLDAQQTQLRIDSFFRLAQQEKEDAKRIKSQRLNRAVTCMLRKEKEAAASEIEAVSVAMEKEFELLDKAKGKTQKRGITNTLEESSSLKRKRLSDSKGKNTCGGFLGETCLSESSDGSSSEDAESSSLMNVQRRTAAKEPKTSASDSQNSVKEAPVKNGGATTSSSSDSDDDGGKEKMVLVTARSVFGKKRRKLRRARGRKRKT
B3: p34/GTF2H3 (protein, UniProt Q13889 1-308)
chain: MVSDEDELNLLVIVVDANPIWWGKQALKESQFTLSKCIDAVMVLGNSHLFMNRSNKLAVIASHIQESRFLYPGKNGRLGDFFGDPGNPPEFNPSGSKDGKYELLTSANEVIVEEIKDLMTKSDIKGQHTETLLAGSLAKALCYIHRMNKEVKDNQEMKSRILVIKAAEDSALQYMNFMNVIFAAQKQNILIDACVLDSDSGLLQQACDITGGLYLKVPQMPSLLQYLLWVFLPDQDQRSQLILPPPVHVDYRAACFCHRNLIEIGYVCSVCLSIFCNFSPICTTCETAFKISLPPVLKAKKKKLKVSA
B4: p44/GTF2H2 (protein, UniProt Q13888 1-395)
chain: MDEEPERTKRWEGGYERTWEILKEDESGSLKATIEDILFKAKRKRVFEHHGQVRLGMMRHLYVVVDGSRTMEDQDLKPNRLTCTLKLLEYFVEEYFDQNPISQIGIIVTKSKRAEKLTELSGNPRKHITSLKKAVDMTCHGEPSLYNSLSIAMQTLKHMPGHTSREVLIIFSSLTTCDPSNIYDLIKTLKAAKIRVSVIGLSAEVRVCTVLARETGGTYHVILDESHYKELLTHHVSPPPASSSSECSLIRMGFPQHTIASLSDQDAKPSFSMAHLDGNTEPGLTLGGYFCPQCRAKYCELPVECKICGLTLVSAPHLARSYHHLFPLDAFQEIPLEEYNGERFCYGCQGELKDQHVYVCAVCQNVFCVDCDVFVHDSLHCCPGCIHKIPAPSGV

Biological target: T1, ERCC1–GFP (human) (UniProt P07992)
T1 sequence: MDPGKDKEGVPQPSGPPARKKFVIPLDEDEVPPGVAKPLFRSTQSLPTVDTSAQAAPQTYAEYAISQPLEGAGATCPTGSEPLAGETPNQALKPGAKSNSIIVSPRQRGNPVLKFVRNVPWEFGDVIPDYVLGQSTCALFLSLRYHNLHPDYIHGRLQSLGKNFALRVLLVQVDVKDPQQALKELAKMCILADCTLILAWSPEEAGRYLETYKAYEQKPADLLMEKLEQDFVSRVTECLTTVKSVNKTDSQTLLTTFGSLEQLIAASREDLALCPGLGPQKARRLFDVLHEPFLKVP
Experiment: affinity purification with mass spectrometry; GFP-Trap_A beads on MNase-digested chromatin-enriched nuclear extracts of SILAC-labelled U2OS ERCC1–GFP cells, mock-treated or 1 h after 20 J/m^2 UVC; forward and reverse (label swap) experiments

Row | Molecule | binding
1 | SLX4 (from UniProt Q8IY92 1-1834) | binds
2 | XPB/ERCC3 (from UniProt P19447 1-782) | binds
3 | p62/GTF2H1 (from UniProt P32780 1-548) | binds
4 | B1 | binds
5 | B2 | binds
6 | B3 | binds
7 | B4 | binds
